The target of test [1] is T1, full-length HDA15 protein fused with the GAL4 DNA binding domain (BD) (Arabidopsis thaliana) (UniProt Q8GXJ1).
T1 sequence: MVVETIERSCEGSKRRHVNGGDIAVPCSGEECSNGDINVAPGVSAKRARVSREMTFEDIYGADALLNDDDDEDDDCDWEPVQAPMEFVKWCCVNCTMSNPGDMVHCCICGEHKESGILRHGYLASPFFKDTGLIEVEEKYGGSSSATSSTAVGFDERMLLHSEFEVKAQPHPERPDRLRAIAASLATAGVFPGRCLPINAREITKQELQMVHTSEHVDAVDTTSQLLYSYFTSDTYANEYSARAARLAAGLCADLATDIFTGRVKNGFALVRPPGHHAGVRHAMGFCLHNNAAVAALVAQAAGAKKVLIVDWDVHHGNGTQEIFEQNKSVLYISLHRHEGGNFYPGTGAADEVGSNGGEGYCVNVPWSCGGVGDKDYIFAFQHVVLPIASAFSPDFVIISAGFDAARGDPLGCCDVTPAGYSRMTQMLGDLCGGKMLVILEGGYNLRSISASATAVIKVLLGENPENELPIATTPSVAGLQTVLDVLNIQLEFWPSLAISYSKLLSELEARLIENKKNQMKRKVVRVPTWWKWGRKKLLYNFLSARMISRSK
The test can be described thus: two-hybrid; GAL4 BD (pGBKT7) and GAL4 AD (pGADT7) fusions cotransformed into yeast AH109; growth on SD/-Leu/-Trp/-His/-Ade.

Sequences of proteins named here, by UniProt entry; tags and fusion partners are left off.
UniProt Q24JK1: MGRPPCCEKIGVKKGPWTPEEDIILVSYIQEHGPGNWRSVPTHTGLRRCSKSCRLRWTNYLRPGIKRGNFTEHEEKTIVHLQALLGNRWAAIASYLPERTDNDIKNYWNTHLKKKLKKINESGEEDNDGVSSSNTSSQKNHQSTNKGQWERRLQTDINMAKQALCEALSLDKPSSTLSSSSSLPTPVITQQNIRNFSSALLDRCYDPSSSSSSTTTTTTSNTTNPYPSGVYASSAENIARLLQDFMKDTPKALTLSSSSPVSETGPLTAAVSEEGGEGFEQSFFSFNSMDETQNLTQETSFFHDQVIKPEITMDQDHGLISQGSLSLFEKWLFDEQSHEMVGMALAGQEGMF

The target in test [2] is T2, HDA15 fused to the N-terminal half of yellow fluorescent protein (nYFP) (Arabidopsis thaliana) (UniProt Q8GXJ1).
T2 sequence: T1 sequence
Put plainly: split reporter; BiFC: nYFP and cYFP fusions transiently coexpressed in Arabidopsis mesophyll protoplasts, 23 °C, 12-16 h in darkness, confocal microscopy.

These are yes or no findings as the source states them, for the method shown. For some assays here: Binding seen in cells or lysates may run through a third protein. Some binding calls cover weakened binding; strength is not graded here. Tags and fused reporters may be left off the sequences shown.

In the case of “MYB96 protein fused with the GAL4 activation domain (AD) (from UniProt Q24JK1 1-352)”, the binding result in test [1] is “binds”. In the case of “MYB96 fused to the C-terminal half of YFP (cYFP) (from UniProt Q24JK1 1-352)”, the binding entry in test [2] is “binds”.

(Values after PMC6461653.)
